Assay results reported in article doi:10.1101/2022.02.23.481674.
Results are given in words; binding and its absence hold for the method and conditions named. In cells and extracts the contact can be indirect. Some binding calls cover weakened binding; strength is not graded here.

Protein sequences, listed by entry. Tags and fused reporters are not part of them. Lines headed by an entry give the natural chain unless they say otherwise; changes in a name come on top. Chains listed by the source or under a name are the forms on record and can include a tag or linker.
CD44, standard form (CD44s), endogenous in MDA-MB-231 cells (human (endogenous in MDA-MB-231)) (P16070, form named): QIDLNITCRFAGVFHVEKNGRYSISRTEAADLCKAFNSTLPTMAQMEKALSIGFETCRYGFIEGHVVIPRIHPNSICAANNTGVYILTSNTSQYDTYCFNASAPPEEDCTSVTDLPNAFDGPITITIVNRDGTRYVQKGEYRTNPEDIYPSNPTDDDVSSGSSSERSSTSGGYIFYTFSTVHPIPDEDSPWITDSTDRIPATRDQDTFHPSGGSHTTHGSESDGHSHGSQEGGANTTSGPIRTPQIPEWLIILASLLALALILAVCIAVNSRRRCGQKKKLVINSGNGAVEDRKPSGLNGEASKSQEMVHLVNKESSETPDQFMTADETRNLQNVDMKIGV

Target: CD44, standard form (CD44s), endogenous in MDA-MB-231 cells (human (endogenous in MDA-MB-231)) (UniProt P16070)
Experiment: co-IP

B1: CD81, endogenous (protein, UniProt P60033 1-236)
chain: MGVEGCTKCIKYLLFVFNFVFWLAGGVILGVALWLRHDPQTTNLLYLELGDKPAPNTFYVGIYILIAVGAVMMFVGFLGCYGAIQESQCLLGTFFTCLVILFACEVAAGIWGFVNKDQIAKDVKQFYDQALQQAVVDDDANNAKAVVKTFHETLDCCGSSTLTALTTSVLKNNLCPSGSNIISNLFKEDCHQKIDDLFSGKLYLIGIAAIVVAVIMIFEMILSMVLCCGIRNSSVY
  binding: binds
